Source: the supplement of paper PMC9578143, “Small-Molecule Ebselen Binds to YTHDF Proteins Interfering with the Recognition of N^6-Methyladenosine-Modified RNAs” (ACS Pharmacology & Translational Science, 2022)
The other results are listed elsewhere or left out. Part of the spread comes from offsets between plates or batches.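 Hits were defined as a z-score below −3.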

Molecular target: T1, YTHDF1 YTH domain (aa 365-554) (UniProt Q9BYJ9)
T1 sequence (whole entry): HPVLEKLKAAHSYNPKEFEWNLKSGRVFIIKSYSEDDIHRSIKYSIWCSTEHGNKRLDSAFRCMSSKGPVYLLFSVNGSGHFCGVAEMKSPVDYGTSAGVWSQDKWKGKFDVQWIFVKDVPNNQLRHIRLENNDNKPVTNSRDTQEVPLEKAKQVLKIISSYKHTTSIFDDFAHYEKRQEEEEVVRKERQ
Assay: tryptophan fluorescence intensity z-score (mean); higher = higher fluorescence, less quenching (negative = binding / quenching)
Settings: 10 µM

Row | SMILES | tryptophan fluorescence intensity z-score
1 | CCCCCCCCCCCC[C@@H](C(=O)O)[C@H](C)C(=O)O (plate: M 15-16) | inactive: 0.403
2 | O=C(O)c1cc(=O)c2ccccc2[nH]1 (plate: M 23-24) | inactive: 0.21
3 | CCOC(N)=O (plate: M 9-10) | inactive: -0.275
4 | O=C1c2cccc(O)c2C(=O)c2c(O)cccc21 (plate: M 1-2) | inactive: 0.553
5 | CCCCC(=O)N(Cc1ccc(-c2ccccc2-c2nnn[nH]2)cc1)[C@H](C(=O)O)C(C)C (plate: M 9-10) | inactive: -0.0915
6 | C[C@H]1C(=O)CC[C@@H]2[C@]1(C)CC[C@H]1[C@@]2(C)CC[C@@]2(C)[C@@H]3CC(C)(C)CC[C@]3(C)CC[C@]12C (plate: M 13-14) | inactive: 0.195
7 | OC(CCN1CCCCC1)(c1ccccc1)c1ccccc1 (plate: M 21-22) | inactive: 0.317
8 | O=C(/C=C/c1ccccc1)c1ccc(O)cc1 (plate: M 15-16) | inactive: -0.465
9 | Nc1ccc(/N=N/c2ccccc2)c(N)n1 (plate: M 3-4) | inactive: -0.234
10 | CN(C)CCOC(=O)C(c1ccccc1)C1(O)CCCC1 (stereo unspecified) (plate: M 1-2) | inactive: 0.441
11 | Nc1nc(/C(=C/CC(=O)O)C(=O)N[C@@H]2C(=O)N3C(C(=O)O)=CCS[C@H]23)cs1 (plate: M 9-10) | inactive: -0.171
12 | Cc1c(S(=O)(=O)O)oc2c1C(=O)C(=O)c1c-2ccc2c1CCCC2(C)C (plate: M 23-24) | inactive: -0.619
13 | NCCCS(=O)(=O)O (plate: M 21-22) | inactive: 0.532
14 | C[C@@H]1CC[C@@]2(OC1)O[C@H]1C[C@H]3[C@@H]4CC=C5C[C@@H](O)CC[C@]5(C)[C@H]4CC[C@]3(C)[C@H]1[C@@H]2C (plate: M 13-14) | inactive: 1.01
15 | Clc1ccc(C(c2ccccc2Cl)C(Cl)Cl)cc1 (stereo unspecified) (plate: M 1-2) | inactive: 0.193
16 | O=C1O[C@H]([C@@H](O)CO)C(O)=C1O (plate: M 7-8) | inactive: 0.248
17 | CC(=O)Nc1ccc(S(=O)(=O)c2ccc(NC(C)=O)cc2)cc1 (plate: M 11-12) | inactive: -0.564
18 | O=C(O)c1ccccc1Nc1cccc(C(F)(F)F)c1 (plate: M 7-8) | inactive: -0.578
19 | OCCc1ccccc1 (plate: M 11-12) | inactive: -0.703
20 | CCCc1nn(C)c2c(=O)[nH]c(-c3cc(S(=O)(=O)N4CCN(C)CC4)ccc3OCC)nc12 (plate: M 9-10) | inactive: -0.0356
21 | O=C1CC[C@]23/C=C/C(=O)NCCCCNCCCNC(=O)/C=C/c4ccc(c2c4)O[C@@H]3C1 (plate: M 13-14) | inactive: -0.335

3 structures from above, arranged by length of the SMILES, falling:
Row | SMILES | tryptophan fluorescence intensity z-score
21 | O=C1CC[C@]23/C=C/C(=O)NCCCCNCCCNC(=O)/C=C/c4ccc(c2c4)O[C@@H]3C1 (plate: M 13-14) | inactive: -0.335
18 | O=C(O)c1ccccc1Nc1cccc(C(F)(F)F)c1 (plate: M 7-8) | inactive: -0.578
2 | O=C(O)c1cc(=O)c2ccccc2[nH]1 (plate: M 23-24) | inactive: 0.21
